# Assay results published in the supplement of paper PMC8728848.
# This is one part of the list.
# What was measured:
# Assay in all cases: glycan array binding signal (z-score within array); higher = stronger binding
# Details in all cases: glycan notation: IUPAC condensed, linker removed
# GlcNAc(b1-3)Gal(b1-4)Glc = biological target: GlcNAc(b1-3)Gal(b1-4)Glc
# Method in brief: (§1)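 The binding signal is a Z-score computed within each array and averaged over linkers. Arrays of the same protein sequence at different concentrations or buffers were also averaged together. Data originate from 3228 arrays in the Consortium for Functional Glycomics database, kept only where the protein sequence was available.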
# [1] = biological target: GlcNAc(b1-3)Gal(b1-4)GlcNAc
# Method in brief: as §1
# [2] = biological target: GlcNAc(b1-3)Gal(b1-4)GlcNAc(b1-2)Man(a1-3)[GlcNAc(b1-3)Gal(b1-4)GlcNAc(b1-2)Man(a1-6)]Man(b1-4)GlcNAc(b1-4)GlcNAc
# Method in brief: as §1
# [3] = biological target: GlcNAc(b1-3)Gal(b1-4)GlcNAc(b1-2)Man(a1-3)[GlcNAc(b1-3)Gal(b1-4)GlcNAc(b1-2)Man(a1-6)]Man(b1-4)GlcNAc(b1-4)[Fuc(a1-6)]GlcNAc
# Method in brief: as §1
# [4] = biological target: GlcNAc(b1-3)Gal(b1-4)GlcNAc(b1-2)[GlcNAc(b1-3)Gal(b1-4)GlcNAc(b1-6)]Man(a1-6)[GlcNAc(b1-3)Gal(b1-4)GlcNAc(b1-2)Man(a1-3)]Man(b1-4)GlcNAc(b1-4)GlcNAc
# Method in brief: as §1
# [5] = biological target: GlcNAc(b1-3)Gal(b1-4)GlcNAc(b1-3)Gal(b1-4)GlcNAc
# Method in brief: as §1
# [6] = biological target: GlcNAc(b1-3)Gal(b1-4)GlcNAc(b1-3)Gal(b1-4)GlcNAc(b1-2)Man(a1-3)[GlcNAc(b1-3)Gal(b1-4)GlcNAc(b1-3)Gal(b1-4)GlcNAc(b1-2)Man(a1-6)]Man(b1-4)GlcNAc(b1-4)GlcNAc
# Method in brief: as §1
# [7] = biological target: GlcNAc(b1-3)Gal(b1-4)GlcNAc(b1-3)Gal(b1-4)GlcNAc(b1-2)Man(a1-3)[GlcNAc(b1-3)Gal(b1-4)GlcNAc(b1-3)Gal(b1-4)GlcNAc(b1-2)Man(a1-6)]Man(b1-4)GlcNAc(b1-4)[Fuc(a1-6)]GlcNAc
# Method in brief: as §1
# [8] = biological target: GlcNAc(b1-3)Gal(b1-4)GlcNAc(b1-3)Gal(b1-4)GlcNAc(b1-2)[GlcNAc(b1-3)Gal(b1-4)GlcNAc(b1-3)Gal(b1-4)GlcNAc(b1-6)]Man(a1-6)[GlcNAc(b1-3)Gal(b1-4)GlcNAc(b1-3)Gal(b1-4)GlcNAc(b1-2)Man(a1-3)]Man(b1-4)GlcNAc(b1-4)[Fuc(a1-6)]GlcNAc
# Method in brief: as §1
# [9] = biological target: GlcNAc(b1-3)Gal(b1-4)GlcNAc(b1-3)Gal(b1-4)GlcNAc(b1-3)Gal(b1-4)GlcNAc(b1-2)Man(a1-3)[GlcNAc(b1-3)Gal(b1-4)GlcNAc(b1-3)Gal(b1-4)GlcNAc(b1-3)Gal(b1-4)GlcNAc(b1-2)Man(a1-6)]Man(b1-4)GlcNAc(b1-4)GlcNAc
# Method in brief: as §1
# [10] = biological target: GlcNAc(b1-3)Gal(b1-4)GlcNAc(b1-3)Gal(b1-4)GlcNAc(b1-3)Gal(b1-4)GlcNAc(b1-2)Man(a1-3)[GlcNAc(b1-3)Gal(b1-4)GlcNAc(b1-3)Gal(b1-4)GlcNAc(b1-3)Gal(b1-4)GlcNAc(b1-2)Man(a1-6)]Man(b1-4)GlcNAc(b1-4)[Fuc(a1-6)]GlcNAc
# Method in brief: as §1
# [11] = biological target: GlcNAc(b1-3)Gal(b1-4)GlcNAc(b1-3)Gal(b1-4)GlcNAc(b1-3)Gal(b1-4)GlcNAc(b1-2)[GlcNAc(b1-3)Gal(b1-4)GlcNAc(b1-3)Gal(b1-4)GlcNAc(b1-3)Gal(b1-4)GlcNAc(b1-6)]Man(a1-6)[GlcNAc(b1-3)Gal(b1-4)GlcNAc(b1-3)Gal(b1-4)GlcNAc(b1-3)Gal(b1-4)GlcNAc(b1-2)Man(a1-3)]Man(b1-4)GlcNAc(b1-4)[Fuc(a1-6)]GlcNAc
# Method in brief: as §1
# [12] = biological target: GlcNAc(b1-3)Gal(b1-4)GlcNAc(b1-3)Gal(b1-4)GlcNAc(b1-3)Gal(b1-4)GlcNAc(b1-3)Gal(b1-4)GlcNAc(b1-2)Man(a1-3)[GlcNAc(b1-3)Gal(b1-4)GlcNAc(b1-3)Gal(b1-4)GlcNAc(b1-3)Gal(b1-4)GlcNAc(b1-3)Gal(b1-4)GlcNAc(b1-2)Man(a1-6)]Man(b1-4)GlcNAc(b1-4)GlcNAc
# Method in brief: as §1
# [13] = biological target: GlcNAc(b1-3)Gal(b1-4)GlcNAc(b1-3)Gal(b1-4)GlcNAc(b1-3)Gal(b1-4)GlcNAc(b1-3)Gal(b1-4)GlcNAc(b1-2)Man(a1-3)[GlcNAc(b1-3)Gal(b1-4)GlcNAc(b1-3)Gal(b1-4)GlcNAc(b1-3)Gal(b1-4)GlcNAc(b1-3)Gal(b1-4)GlcNAc(b1-2)Man(a1-6)]Man(b1-4)GlcNAc(b1-4)[Fuc(a1-6)]GlcNAc
# Method in brief: as §1
# [14] = biological target: GlcNAc(b1-3)Gal(b1-4)GlcNAc(b1-3)Gal(b1-4)GlcNAc(b1-3)Gal(b1-4)GlcNAc(b1-3)Gal(b1-4)GlcNAc(b1-2)[GlcNAc(b1-3)Gal(b1-4)GlcNAc(b1-3)Gal(b1-4)GlcNAc(b1-3)Gal(b1-4)GlcNAc(b1-3)Gal(b1-4)GlcNAc(b1-6)]Man(a1-6)[GlcNAc(b1-3)Gal(b1-4)GlcNAc(b1-3)Gal(b1-4)GlcNAc(b1-3)Gal(b1-4)GlcNAc(b1-3)Gal(b1-4)GlcNAc(b1-2)Man(a1-3)]Man(b1-4)GlcNAc(b1-4)[Fuc(a1-6)]GlcNAc
# Method in brief: as §1
# [15] = biological target: GlcNAc(b1-3)Gal(b1-4)GlcNAc(b1-3)Gal(b1-4)GlcNAc(b1-3)GalNAc
# Method in brief: as §1
# [16] = biological target: GlcNAc(b1-3)Gal(b1-4)GlcNAc(b1-3)GalNAc
# Method in brief: as §1
# [17] = biological target: GlcNAc(b1-3)Gal(b1-4)GlcNAc(b1-3)[GlcNAc(b1-3)Gal(b1-4)GlcNAc(b1-3)]GalNAc
# Method in brief: as §1
# [18] = biological target: GlcNAc(b1-3)Gal(b1-4)GlcNAc(b1-6)[Gal(b1-3)]GalNAc
# Method in brief: as §1
# [19] = biological target: GlcNAc(b1-3)Gal(b1-4)GlcNAc(b1-6)[GlcNAc(b1-3)Gal(b1-3)]GalNAc
# Method in brief: as §1
# [20] = biological target: GlcNAc(b1-3)Gal(b1-4)GlcNAc(b1-6)[GlcNAc(b1-3)]Gal(b1-4)GlcNAc
# Method in brief: as §1
# GlcNAc(b1-3)GalNAc = biological target: GlcNAc(b1-3)GalNAc
# Method in brief: as §1
# GlcNAc(b1-3)Man = biological target: GlcNAc(b1-3)Man
# Method in brief: as §1
# [21] = biological target: GlcNAc(b1-3)[GlcNAc(b1-4)][GlcNAc(b1-6)]GlcNAc
# Method in brief: as §1
# [22] = biological target: GlcNAc(b1-3)[GlcNAc(b1-6)]Gal(b1-4)GlcNAc
# Method in brief: as §1
# [23] = biological target: GlcNAc(b1-3)[GlcNAc(b1-6)]GalNAc
# Method in brief: as §1
# [24] = biological target: GlcNAc(b1-4)Gal(b1-4)GlcNAc
# Method in brief: as §1
# GlcNAc(b1-4)GlcNAc = biological target: GlcNAc(b1-4)GlcNAc
# Method in brief: as §1
# [25] = biological target: GlcNAc(b1-4)GlcNAc(b1-4)GlcNAc
# Method in brief: as §1
# [26] = biological target: GlcNAc(b1-4)GlcNAc(b1-4)GlcNAc(b1-4)GlcNAc(b1-4)GlcNAc
# Method in brief: as §1
# [27] = biological target: GlcNAc(b1-4)GlcNAc(b1-4)GlcNAc(b1-4)GlcNAc(b1-4)GlcNAc(b1-4)GlcNAc
# Method in brief: as §1
# [28] = biological target: GlcNAc(b1-4)[GlcNAc(b1-6)]GalNAc
# Method in brief: as §1
# [29] = biological target: GlcNAc(b1-6)Gal(b1-4)GlcNAc
# Method in brief: as §1
# GlcNAc(b1-6)GalNAc = biological target: GlcNAc(b1-6)GalNAc
# Method in brief: as §1
# [30] = biological target: GlcNAc6S(b1-3)Gal(b1-4)GlcNAc
# Method in brief: as §1
# Kdn(a2-3)Gal(b1-3)GalNAc = biological target: Kdn(a2-3)Gal(b1-3)GalNAc
# Method in brief: as §1
# Kdn(a2-3)Gal(b1-3)GlcNAc = biological target: Kdn(a2-3)Gal(b1-3)GlcNAc
# Method in brief: as §1
binder,measurement,setting,value
GS13814A-bth-462-26-462 (Bacteroides thetaiotaomicron) (protein) DDRDNLMVNDQIGLLHSTYTETEIFRGMDTPYQLFVIKSGKGKQETEVSISVDETVLQSYNTDNGTSIQLLPSDCYTILQPALRLNDSDYRKAFDIKWNADRLSDLLSTGKEYGLPIQMSVVQNFISADDERLKTIIVPTIKEPYLQMDVPGMSPVTDFMPTFGDLNERELFVKIRTNYSNDEDISFQIEVDPQLVIDYNTAHGTAYKMLPESSFTVDNKGVILTGMKETFIKIKYHKKGLIPEEGTYLFGDYVLPLRITSVSKYGISPDAASKLYTVKFQPDPIDKKGWSVIDFNNCCTQDGGWYLNMGWGVESLIDNNPGTQWLCRWDVKEPLPYYFVFDMGKEYTLFRFGFANPVAPAAHVWAGTSKAGYVEASIDNENWVKLKDWTSPKIGEPNVNMDVPATQARYIRFVITDTYPTYDGLRVSLGEVYAWGM,glycan array binding signal (z-score),GlcNAc(b1-3)Gal(b1-4)Glc,0.314
same,glycan array binding signal (z-score),[1],-0.328
same,glycan array binding signal (z-score),[2],-0.308
same,glycan array binding signal (z-score),[3],0.752
same,glycan array binding signal (z-score),[4],1.26
same,glycan array binding signal (z-score),[5],-0.273
same,glycan array binding signal (z-score),[6],0.7
same,glycan array binding signal (z-score),[7],-0.74
same,glycan array binding signal (z-score),[8],0.296
same,glycan array binding signal (z-score),[9],-0.256
same,glycan array binding signal (z-score),[10],0.198
same,glycan array binding signal (z-score),[11],0.903
same,glycan array binding signal (z-score),[12],0.174
same,glycan array binding signal (z-score),[13],1.41
same,glycan array binding signal (z-score),[14],1.15
same,glycan array binding signal (z-score),[15],-0.105
same,glycan array binding signal (z-score),[16],-0.438
same,glycan array binding signal (z-score),[17],-0.126
same,glycan array binding signal (z-score),[18],0.535
same,glycan array binding signal (z-score),[19],0.331
same,glycan array binding signal (z-score),[20],0.262
same,glycan array binding signal (z-score),GlcNAc(b1-3)GalNAc,0.754
same,glycan array binding signal (z-score),GlcNAc(b1-3)Man,0.659
same,glycan array binding signal (z-score),[21],1.62
same,glycan array binding signal (z-score),[22],-0.285
same,glycan array binding signal (z-score),[23],1.5
same,glycan array binding signal (z-score),[24],-0.159
same,glycan array binding signal (z-score),GlcNAc(b1-4)GlcNAc,0.8
same,glycan array binding signal (z-score),[25],-1.12
same,glycan array binding signal (z-score),[26],0.117
same,glycan array binding signal (z-score),[27],-0.27
same,glycan array binding signal (z-score),[28],-0.226
same,glycan array binding signal (z-score),[29],-0.9
same,glycan array binding signal (z-score),GlcNAc(b1-6)GalNAc,-0.198
same,glycan array binding signal (z-score),[30],0.872
same,glycan array binding signal (z-score),Kdn(a2-3)Gal(b1-3)GalNAc,0.216
same,glycan array binding signal (z-score),Kdn(a2-3)Gal(b1-3)GlcNAc,-0.251

# Laid out differently: results already given
binder | measurement | setting | value
GS13814A-bth-462-26-462 (Bacteroides thetaiotaomicron) (protein) DDRDNLMVNDQIGLLHSTYTETEIFRGMDTPYQLFVIKSGKGKQETEVSISVDETVLQSYNTDNGTSIQLLPSDCYTILQPALRLNDSDYRKAFDIKWNADRLSDLLSTGKEYGLPIQMSVVQNFISADDERLKTIIVPTIKEPYLQMDVPGMSPVTDFMPTFGDLNERELFVKIRTNYSNDEDISFQIEVDPQLVIDYNTAHGTAYKMLPESSFTVDNKGVILTGMKETFIKIKYHKKGLIPEEGTYLFGDYVLPLRITSVSKYGISPDAASKLYTVKFQPDPIDKKGWSVIDFNNCCTQDGGWYLNMGWGVESLIDNNPGTQWLCRWDVKEPLPYYFVFDMGKEYTLFRFGFANPVAPAAHVWAGTSKAGYVEASIDNENWVKLKDWTSPKIGEPNVNMDVPATQARYIRFVITDTYPTYDGLRVSLGEVYAWGM | glycan array binding signal (z-score) | Kdn(a2-3)Gal(b1-3)GalNAc | 0.216
same | glycan array binding signal (z-score) | Kdn(a2-3)Gal(b1-3)GlcNAc | -0.251
